{"source": "patent US20190022104A1", "about": "(priority 2016, published 2019)", "tested_on": "mice with sepsis shock induced by 75 mg/kg endotoxin", "assay": "Survival of mice with sepsis shock induced by 75 mg/kg endotoxin", "assay_type": "in vivo", "conditions": "10 mice per group, endotoxin group 6 died", "procedure": "The model of septic shock in mice was induced by intraperitoneal injection of a toxic dose of 75 mg/kg endotoxin. […] The model of sepsis shock in mice was induced by intraperitoneal injection of a total lethal dose of 150 mg/kg endotoxin. […] Mice injected intraperitoneally with placebo in place of endotoxin were used as a normal control group.\nThe model of sepsis shock in mice was induced with 75 mg/kg endotoxin.", "data": [{"compound": "CN1[C@@H]2CC[C@H]1C[C@@H](OC(=O)C(CO)c1ccccc1)C2", "note": "(stereo partly shown) [atropine]", "values": [{"measurement": "number of mice died", "value": 3}]}]}
